# Results deposited as PubChem BioAssay AID1259254 (NCATS, 2017)
# Aim: 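Finding genes that stop cells copying their DNA twice in one cycle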 (primary screen)
# System: human HCT116 colorectal cancer cells
# Knock-down reagent: single siRNA against human genes
# Time to read-out: 3 days
# Detection: 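Nuclei stained with Hoechst and imaged; cell-cycle phase assigned by DNA content; G2 share scaled per plate, non-targeting siRNA 0%, GMNN siRNA 100%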
# Scale: G2 robust z-score and G2 cells, % of GMNN control: higher = more G2 cells, more excess DNA replication
# Active means: 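An siRNA counts as active if its G2 robust z-score lies at least 5 MADs above the screen median; here such calls match roughly 38% of GMNN control or more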
# Shown is one part, drawn at random, of about 59,000 deposited reagents. About 1,550 of all reagents (2.6%) count as active. 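G2 share is only a proxy for re-replication; each gene was hit by three separate siRNAs, and active genes were retested.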 The numbers tell different reagents against one gene apart. Further read-outs or replicates are left out here. The record does not give: the amount of reagent.
target,siRNA no.,G2 robust z-score,"G2 cells, % of GMNN control",Call
CIB4,1,0.0739,3.49,inactive
CIB4,2,2.65,21.6,inactive
CIB4,3,0.965,9.76,inactive
ZNF700,1,-0.441,-0.133,inactive
ZNF700,2,2.46,20.3,inactive
ZNF700,3,0.958,9.71,inactive
OTP,1,2.71,22,inactive
OTP,2,-0.311,0.78,inactive
OTP,3,-1.18,-5.33,inactive
BCAT2,1,-0.724,-2.13,inactive
BCAT2,2,0.458,6.19,inactive
BCAT2,3,0.438,6.05,inactive
MAZ,1,-0.462,-0.282,inactive
MAZ,2,-1.08,-4.64,inactive
MAZ,3,-0.771,-2.45,inactive
RGL1,1,-0.6,-1.26,inactive
RGL1,2,-1.19,-5.43,inactive
RGL1,3,0.884,9.19,inactive
NACA3P,1,0.691,7.83,inactive
NACA3P,2,0.577,7.03,inactive
NACA3P,3,0.0208,3.11,inactive
ZC2HC1B,1,0.948,9.64,inactive
ZC2HC1B,2,-0.804,-2.69,inactive
ZC2HC1B,3,0.0733,3.48,inactive
SMUG1,1,3.81,29.8,inactive
SMUG1,2,-0.605,-1.29,inactive
SMUG1,3,-0.468,-0.324,inactive
CARNS1,1,-0.422,0.000809,inactive
CARNS1,2,-0.899,-3.36,inactive
CARNS1,3,1.99,17,inactive
ASTN2,1,1.31,12.2,inactive
ASTN2,2,-0.451,-0.204,inactive
ASTN2,3,1.94,16.6,inactive
SMPDL3B,1,1.22,11.5,inactive
SMPDL3B,2,-1.19,-5.38,inactive
SMPDL3B,3,0.277,4.92,inactive
FAM168B,1,0.031,3.19,inactive
FAM168B,2,0.703,7.91,inactive
FAM168B,3,1.39,12.8,inactive
NLRP8,1,4.96,37.9,inactive
NLRP8,2,-0.136,2.01,inactive
NLRP8,3,-0.543,-0.855,inactive
LINC00926,1,-0.435,-0.0954,inactive
LINC00926,2,0.286,4.98,inactive
LINC00926,3,0.308,5.13,inactive
ENPP4,1,1.95,16.7,inactive
ENPP4,2,0.478,6.33,inactive
ENPP4,3,-0.9,-3.36,inactive
RTN1,1,0.694,7.85,inactive
RTN1,2,0.029,3.17,inactive
RTN1,3,-0.264,1.11,inactive
SESTD1,1,0.615,7.3,inactive
SESTD1,2,-0.639,-1.53,inactive
SESTD1,3,-0.799,-2.66,inactive
LOC729879 (retired record),1,-0.183,1.68,inactive
LOC729879 (retired record),2,2,17,inactive
LOC729879 (retired record),3,-0.11,2.2,inactive
TMEFF2,1,-1.24,-5.79,inactive
TMEFF2,2,-1.03,-4.27,inactive
TMEFF2,3,0.142,3.96,inactive
FAM163B,1,-0.656,-1.65,inactive
FAM163B,2,-0.871,-3.16,inactive
FAM163B,3,-0.994,-4.03,inactive
SPATA8,1,-0.278,1.01,inactive
SPATA8,2,0.0529,3.34,inactive
SPATA8,3,1.87,16.1,inactive
WNT5B,1,-0.605,-1.29,inactive
WNT5B,2,-0.583,-1.14,inactive
WNT5B,3,1.81,15.7,inactive
RAB11FIP4,1,-0.336,0.604,inactive
RAB11FIP4,2,-0.0731,2.45,inactive
RAB11FIP4,3,3.22,25.6,inactive
ALPP,1,-0.857,-3.06,inactive
ALPP,2,2.55,20.9,inactive
ALPP,3,8.05,59.6,active
NAALAD2,1,0.87,9.09,inactive
NAALAD2,2,-1.24,-5.75,inactive
NAALAD2,3,0.948,9.64,inactive
XKR6,1,-0.78,-2.52,inactive
XKR6,2,-0.258,1.15,inactive
XKR6,3,-0.169,1.78,inactive
ZNF610,1,0.423,5.94,inactive
ZNF610,2,1.32,12.3,inactive
ZNF610,3,0.401,5.79,inactive
ORMDL2,1,5.52,41.8,active
ORMDL2,2,-0.603,-1.28,inactive
ORMDL2,3,-0.637,-1.51,inactive

Sorted by “G2 robust z-score” (lowest first): 8 of the entries above.
target,siRNA no.,G2 robust z-score,"G2 cells, % of GMNN control",Call
ENPP4,3,-0.9,-3.36,inactive
NLRP8,3,-0.543,-0.855,inactive
LINC00926,1,-0.435,-0.0954,inactive
LINC00926,2,0.286,4.98,inactive
LINC00926,3,0.308,5.13,inactive
ENPP4,2,0.478,6.33,inactive
RTN1,1,0.694,7.85,inactive
ENPP4,1,1.95,16.7,inactive
